No constants are given. Whether binding was seen depends on the method and setting. In cells and extracts the contact can be indirect. Here binding means that the protein was enriched with, or labelled near, the bait; the list need not be complete. No binding means not detected with the bait.

The assay deals with CD4 (UniProt P01730). The experiment in a line: affinity purification with mass spectrometry.

On to PIVQNIQGQMVHQAISPRTLNA, for which the binding entry was “no binding”.

For PLTSLRSLFGNDPSSQ, the binding entry was “no binding”. In the case of VVEEKAFSPEVI it was “no binding”; in that of VVEEKAFSPEVIP, “no binding”; in that of FLGKIWPSYKGRPGNF, “no binding”. The value for AEAMSQVTNSATIM was “no binding”.
